We go through eight compounds from patent publication US5449592A, “Silver halide color photographic light sensitive material for color proof and method for preparing color proof using the same” (Konica Corporation, priority 1988, dated 1995).

A short description of the data set: Gamma variation ratio of yellow couplers (inhibition of color development). The settings on record: relative to standard sample with coupler YS. The procedure:
The gamma variation ratio is determined by the following method.
(1) Preparation of the standard sample
Into 150 ml of ethyl acetate 60 g of yellow coupler represented by the following formula (YS) and 20 g of tricresil phosphate are aded and dissolved. The solution is mixed with 1 liter of 5% aqueous solution of gelatin containing 10 ml of 5% aqueous solution of Alkanol B (alkyl naphthalenesulfonate, made by du Pont Co.) and dispersed for making a dispersion using an ultrasonic disperser. The dispersion thus obtained is added to a silver iodobromide emulsion containing 6 mol % of silver iodide so that the amount of the yellow coupler is 0.3 mol per mol of silver in the emulsion. To the emulsion 1.2 g of 1,2-bis(vinylsulfonyl)ethane is added per gram of gelatin as a hardner. The emulsion is coated on a transparent cellulose acetate film in an amount of 2 g per sq. meter in terms of silver.
The processed samples each is subjected to densitometry with red light by Konica Densitometer PDA-65 and a chracteriastics curve thereof is drawn. The gamma value is determined by the gradient of the line connecting the points of the density of 0.3 and 0.8 on the characteristic curve. The gamma variation ratio γv is defined by the following equation, in which γt is the gamma value of the sample containing the coupler to be tested and γs is the gamma value of the standard sample.
The yellow coupler used in the invention should have a γv value of not more than 0.1, preferably not more than 0.02.
Samples of positive light-sensitive material No. 41 to 49 were prepared in the same manner as in Sample 18 of Example 2 of the specification except that yellow coupler Y-8 was replaced by the following comparative or inventive couplers. On the other hand, the gamma variation rate γv of the couplers were determined the foregoing method.
Turning to `CCC(C)(C)c1ccc(OCCCC(=O)Nc2ccc(Cl)c(NC(=O)C(C(=O)C(C)(C)C)n3nnc4ccc(C(=O)Oc5ccccc5)cc43)c2)c(C(C)(C)CC)c1` (centres unmarked) [CY-1, reference compound], the “gamma variation ratio γv” value is given as -0.30.
For `CCC(C)(C)c1ccc(OCCCC(=O)Nc2ccc(Cl)c(NC(=O)C(C(=O)C(C)(C)C)n3c(=O)n(Cc4ccccc4)n(-c4ccccc4)c3=O)c2)c(C(C)(C)CC)c1` (centres unmarked) [Y-1] the value was 0; for `CCC(C)(C)c1ccc(OCCCC(=O)Nc2ccc(Cl)c(NC(=O)C(Oc3ccc(S(=O)(=O)c4ccc(OCc5ccccc5)cc4)cc3)C(=O)C(C)(C)C)c2)c(C(C)(C)CC)c1` (centres unmarked) [Y-8], 0; for `CCC(C)(C)c1ccc(OCCCC(=O)Nc2ccc(Cl)c(NC(=O)C(Sc3nnnn3-c3ccc(C(=O)O)cc3)C(=O)C(C)(C)C)c2)c(C(C)(C)CC)c1` (centres unmarked) [Y-61], 0.
For `CCC(C)(C)c1ccc(OCCCC(=O)Nc2ccc(Cl)c(NC(=O)C(C(=O)C(C)(C)C)n3c(SCC(=O)O)nc4ccccc43)c2)c(C(C)(C)CC)c1` (centres unmarked) [Y-62] the value was 0; for `CCC(C)(C)c1ccc(OCCCC(=O)Nc2ccc(Cl)c(NC(=O)C(OCC(=O)O)C(=O)C(C)(C)C)c2)c(C(C)(C)CC)c1` (centres unmarked) [Y-63], 0; for `CCC(C)(C)c1ccc(OCCCC(=O)Nc2ccc(Cl)c(NC(=O)C(SCC(=O)O)C(=O)C(C)(C)C)c2)c(C(C)(C)CC)c1` (centres unmarked) [Y-64], 0.
For `CCC(C)(C)c1ccc(OCCCC(=O)Nc2ccc(Cl)c(NC(=O)C(C(=O)C(C)(C)C)n3cccn3)c2)c(C(C)(C)CC)c1` (centres unmarked) [Y-65] the value was 0.
